## Drug screen on melanoma cell lines: apoptosis marker

Data from the primary screen of doi:10.1371/journal.pone.0140310, rounded.

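Human melanoma cell lines in 1,536-well plates were treated with a pair of drugs for 72 h, then fixed, stained and imaged. Each value is the cleaved-PARP-positive fraction of nuclei relative to DMSO-treated wells, in %, so that 100 equals the control and higher values mean more apoptosis. Concentrations were fixed for each drug; these are the higher of two levels. These are primary screening values without error estimates. The marker varies much from line to line, for technical or biological reasons.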
This is part of the screen, not chosen by result.

Drugs:
lenalidomide, 5 µM: Nc1cccc2c1CN(C1CCC(=O)NC1=O)C2=O (configuration not stated)
RKI-983, 2 µM: C[C@@H](N)c1ccc(C(=O)Nc2ccnc3[nH]ccc23)cc1
stibogluconate, 10 µM: O=C(O)[C@@H]1[O][Sb](=[O])([O][Sb]2(=[O])[O][C@H]([C@H](O)CO)[C@H](O)[C@H](C(=O)O)[O]2)[O][C@H]([C@H](O)CO)[C@@H]1O (some centres not stated)
midostaurin, 0.4 µM: CO[C@@H]1[C@H](N(C)C(=O)c2ccccc2)C[C@H]2O[C@]1(C)n1c3ccccc3c3c4c(c5c6ccccc6n2c5c31)C(=O)NC4
etoposide, 0.1 µM: COc1cc([C@@H]2c3cc4c(cc3[C@@H](O[C@@H]3O[C@@H]5CO[C@@H](C)O[C@H]5[C@H](O)[C@H]3O)[C@H]3COC(=O)[C@H]23)OCO4)cc(OC)c1O
IMD-0354, 0.08 µM: O=C(Nc1cc(C(F)(F)F)cc(C(F)(F)F)c1)c1cc(Cl)ccc1O
FH535, 5 µM: Cc1cc([N+](=O)[O-])ccc1NS(=O)(=O)c1cc(Cl)ccc1Cl
CHIR-265, 0.4 µM: Cn1c(Nc2ccc(C(F)(F)F)cc2)nc2cc(Oc3ccnc(-c4ncc(C(F)(F)F)[nH]4)c3)ccc21

Pair	WM451Lu
RKI-983 and lenalidomide	78.9
etoposide and lenalidomide	77.7
midostaurin and IMD-0354	144
FH535 and IMD-0354	37.5
etoposide and FH535	51.5
etoposide and CHIR-265	288
stibogluconate and lenalidomide	299
stibogluconate and etoposide	45.3
RKI-983 and etoposide	174
midostaurin and FH535	78.6
midostaurin and RKI-983	230
CHIR-265 and stibogluconate	926
RKI-983 and IMD-0354	53.8
CHIR-265 and RKI-983	207
stibogluconate and RKI-983	225
CHIR-265 and lenalidomide	182
midostaurin and CHIR-265	134
lenalidomide and FH535	70.5
lenalidomide and midostaurin	82.6
RKI-983 and FH535	46.5
FH535 and CHIR-265	179
FH535 and stibogluconate	58.4
IMD-0354 and CHIR-265	131
IMD-0354 and lenalidomide	37.8
midostaurin and stibogluconate	159
etoposide and midostaurin	103
etoposide and IMD-0354	117
stibogluconate and IMD-0354	31.8

2 of the entries, repeated:

| Pair | WM451Lu |
|---|---|
| etoposide and FH535 | 51.5 |
| RKI-983 and IMD-0354 | 53.8 |